{
  "sequences": {"note": "The chains behind the UniProt entries cited, without tags or fusion partners. Where a name states a change or a piece, a line headed by the entry shows the natural chain unless it says otherwise.", "UniProt P08247, whole entry, looked up": "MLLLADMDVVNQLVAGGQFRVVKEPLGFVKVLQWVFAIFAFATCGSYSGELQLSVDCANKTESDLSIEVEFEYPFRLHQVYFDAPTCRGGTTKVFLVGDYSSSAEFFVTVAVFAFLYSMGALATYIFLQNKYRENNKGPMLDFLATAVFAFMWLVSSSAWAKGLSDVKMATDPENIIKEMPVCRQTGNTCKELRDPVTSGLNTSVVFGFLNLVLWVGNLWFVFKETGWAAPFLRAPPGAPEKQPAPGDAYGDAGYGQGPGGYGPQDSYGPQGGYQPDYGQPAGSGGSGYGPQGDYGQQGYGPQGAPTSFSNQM", "UniProt Q9Y2Z0": "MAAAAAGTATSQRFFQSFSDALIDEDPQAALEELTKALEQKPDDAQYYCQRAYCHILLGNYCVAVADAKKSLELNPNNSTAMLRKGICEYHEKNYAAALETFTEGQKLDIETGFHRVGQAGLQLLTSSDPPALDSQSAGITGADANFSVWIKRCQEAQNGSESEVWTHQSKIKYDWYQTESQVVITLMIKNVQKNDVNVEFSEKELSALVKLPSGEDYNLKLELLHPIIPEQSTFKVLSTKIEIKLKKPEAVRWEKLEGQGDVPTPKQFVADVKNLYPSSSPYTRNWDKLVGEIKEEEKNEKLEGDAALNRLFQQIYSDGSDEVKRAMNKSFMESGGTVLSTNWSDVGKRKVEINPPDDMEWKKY", "UniProt Q93075": "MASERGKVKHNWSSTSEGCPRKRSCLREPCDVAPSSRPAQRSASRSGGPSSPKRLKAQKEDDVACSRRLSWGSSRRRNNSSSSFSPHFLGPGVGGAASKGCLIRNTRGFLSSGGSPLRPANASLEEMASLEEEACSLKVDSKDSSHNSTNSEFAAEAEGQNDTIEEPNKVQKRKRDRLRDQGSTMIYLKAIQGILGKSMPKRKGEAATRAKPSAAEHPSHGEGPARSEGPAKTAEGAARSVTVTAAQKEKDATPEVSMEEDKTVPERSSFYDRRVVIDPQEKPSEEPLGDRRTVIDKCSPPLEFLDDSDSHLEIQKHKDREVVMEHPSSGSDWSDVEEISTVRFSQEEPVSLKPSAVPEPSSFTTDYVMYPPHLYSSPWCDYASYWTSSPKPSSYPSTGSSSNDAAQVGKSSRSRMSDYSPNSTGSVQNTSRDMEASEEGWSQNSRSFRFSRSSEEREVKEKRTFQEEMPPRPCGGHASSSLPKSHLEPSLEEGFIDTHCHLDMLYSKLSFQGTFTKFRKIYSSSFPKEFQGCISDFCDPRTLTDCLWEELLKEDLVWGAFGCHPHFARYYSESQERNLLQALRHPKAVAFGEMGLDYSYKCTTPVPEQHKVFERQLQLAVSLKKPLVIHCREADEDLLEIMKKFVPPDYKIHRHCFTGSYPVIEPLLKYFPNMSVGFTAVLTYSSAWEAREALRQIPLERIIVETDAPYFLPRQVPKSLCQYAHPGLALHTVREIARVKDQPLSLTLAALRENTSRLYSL", "UniProt Q8N2H4": "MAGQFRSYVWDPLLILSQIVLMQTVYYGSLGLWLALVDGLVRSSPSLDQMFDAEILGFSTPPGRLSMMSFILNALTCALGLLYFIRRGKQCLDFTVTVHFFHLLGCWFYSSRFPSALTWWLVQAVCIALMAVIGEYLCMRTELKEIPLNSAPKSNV", "UniProt Q8TDR2": "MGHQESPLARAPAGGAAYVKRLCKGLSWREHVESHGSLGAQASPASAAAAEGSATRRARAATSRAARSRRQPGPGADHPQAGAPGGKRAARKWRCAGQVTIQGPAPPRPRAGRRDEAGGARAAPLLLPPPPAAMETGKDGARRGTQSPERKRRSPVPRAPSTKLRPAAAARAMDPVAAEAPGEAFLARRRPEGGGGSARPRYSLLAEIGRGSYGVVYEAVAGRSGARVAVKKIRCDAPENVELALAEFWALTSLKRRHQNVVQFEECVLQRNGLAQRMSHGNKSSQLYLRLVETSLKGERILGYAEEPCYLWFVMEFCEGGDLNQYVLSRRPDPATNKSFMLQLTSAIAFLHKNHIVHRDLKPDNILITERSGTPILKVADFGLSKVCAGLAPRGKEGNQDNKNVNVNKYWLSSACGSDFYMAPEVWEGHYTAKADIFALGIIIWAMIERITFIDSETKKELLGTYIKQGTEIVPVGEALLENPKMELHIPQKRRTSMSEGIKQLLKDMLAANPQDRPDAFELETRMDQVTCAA", "UniProt Q6P1N9": "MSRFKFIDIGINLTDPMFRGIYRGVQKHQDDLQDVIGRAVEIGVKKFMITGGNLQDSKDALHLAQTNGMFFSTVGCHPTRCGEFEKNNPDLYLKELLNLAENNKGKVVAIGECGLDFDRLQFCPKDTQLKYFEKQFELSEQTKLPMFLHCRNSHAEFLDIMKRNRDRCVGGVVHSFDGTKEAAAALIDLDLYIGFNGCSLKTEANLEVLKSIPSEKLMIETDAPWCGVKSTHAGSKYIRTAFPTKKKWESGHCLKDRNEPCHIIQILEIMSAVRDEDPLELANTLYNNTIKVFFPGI", "UniProt Q96C24": "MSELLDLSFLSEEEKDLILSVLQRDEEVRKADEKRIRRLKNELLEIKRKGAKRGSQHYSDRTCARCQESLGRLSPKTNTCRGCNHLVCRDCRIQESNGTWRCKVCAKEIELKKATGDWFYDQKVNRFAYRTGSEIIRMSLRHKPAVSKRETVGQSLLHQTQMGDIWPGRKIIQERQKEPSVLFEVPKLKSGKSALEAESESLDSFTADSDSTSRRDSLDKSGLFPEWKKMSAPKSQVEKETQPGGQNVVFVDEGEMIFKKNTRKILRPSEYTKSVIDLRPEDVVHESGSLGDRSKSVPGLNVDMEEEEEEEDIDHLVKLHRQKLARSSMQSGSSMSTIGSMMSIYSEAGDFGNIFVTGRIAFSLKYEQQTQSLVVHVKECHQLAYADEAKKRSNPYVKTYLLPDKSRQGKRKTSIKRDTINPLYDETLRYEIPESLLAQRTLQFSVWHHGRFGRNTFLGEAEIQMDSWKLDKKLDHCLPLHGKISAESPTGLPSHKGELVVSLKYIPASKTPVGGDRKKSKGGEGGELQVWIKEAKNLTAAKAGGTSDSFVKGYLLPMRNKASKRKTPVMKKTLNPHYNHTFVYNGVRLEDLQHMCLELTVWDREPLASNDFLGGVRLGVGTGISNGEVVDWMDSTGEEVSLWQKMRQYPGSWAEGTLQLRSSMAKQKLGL", "UniProt P08842": "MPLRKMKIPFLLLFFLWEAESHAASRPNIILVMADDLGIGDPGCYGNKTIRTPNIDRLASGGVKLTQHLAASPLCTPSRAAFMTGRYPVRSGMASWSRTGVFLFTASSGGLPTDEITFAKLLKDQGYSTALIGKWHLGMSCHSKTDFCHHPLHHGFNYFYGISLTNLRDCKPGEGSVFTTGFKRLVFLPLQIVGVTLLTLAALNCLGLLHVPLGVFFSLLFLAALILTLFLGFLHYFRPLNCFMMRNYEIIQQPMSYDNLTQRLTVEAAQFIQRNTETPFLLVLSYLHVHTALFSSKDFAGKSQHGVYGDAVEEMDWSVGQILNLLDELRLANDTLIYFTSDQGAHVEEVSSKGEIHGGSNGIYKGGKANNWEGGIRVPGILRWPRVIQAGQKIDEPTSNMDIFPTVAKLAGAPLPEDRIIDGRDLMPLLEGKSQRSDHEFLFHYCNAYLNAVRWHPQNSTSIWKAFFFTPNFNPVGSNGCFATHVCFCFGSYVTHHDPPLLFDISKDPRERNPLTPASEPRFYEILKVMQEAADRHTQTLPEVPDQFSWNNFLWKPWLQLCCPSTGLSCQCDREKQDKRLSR", "UniProt Q9UL54": "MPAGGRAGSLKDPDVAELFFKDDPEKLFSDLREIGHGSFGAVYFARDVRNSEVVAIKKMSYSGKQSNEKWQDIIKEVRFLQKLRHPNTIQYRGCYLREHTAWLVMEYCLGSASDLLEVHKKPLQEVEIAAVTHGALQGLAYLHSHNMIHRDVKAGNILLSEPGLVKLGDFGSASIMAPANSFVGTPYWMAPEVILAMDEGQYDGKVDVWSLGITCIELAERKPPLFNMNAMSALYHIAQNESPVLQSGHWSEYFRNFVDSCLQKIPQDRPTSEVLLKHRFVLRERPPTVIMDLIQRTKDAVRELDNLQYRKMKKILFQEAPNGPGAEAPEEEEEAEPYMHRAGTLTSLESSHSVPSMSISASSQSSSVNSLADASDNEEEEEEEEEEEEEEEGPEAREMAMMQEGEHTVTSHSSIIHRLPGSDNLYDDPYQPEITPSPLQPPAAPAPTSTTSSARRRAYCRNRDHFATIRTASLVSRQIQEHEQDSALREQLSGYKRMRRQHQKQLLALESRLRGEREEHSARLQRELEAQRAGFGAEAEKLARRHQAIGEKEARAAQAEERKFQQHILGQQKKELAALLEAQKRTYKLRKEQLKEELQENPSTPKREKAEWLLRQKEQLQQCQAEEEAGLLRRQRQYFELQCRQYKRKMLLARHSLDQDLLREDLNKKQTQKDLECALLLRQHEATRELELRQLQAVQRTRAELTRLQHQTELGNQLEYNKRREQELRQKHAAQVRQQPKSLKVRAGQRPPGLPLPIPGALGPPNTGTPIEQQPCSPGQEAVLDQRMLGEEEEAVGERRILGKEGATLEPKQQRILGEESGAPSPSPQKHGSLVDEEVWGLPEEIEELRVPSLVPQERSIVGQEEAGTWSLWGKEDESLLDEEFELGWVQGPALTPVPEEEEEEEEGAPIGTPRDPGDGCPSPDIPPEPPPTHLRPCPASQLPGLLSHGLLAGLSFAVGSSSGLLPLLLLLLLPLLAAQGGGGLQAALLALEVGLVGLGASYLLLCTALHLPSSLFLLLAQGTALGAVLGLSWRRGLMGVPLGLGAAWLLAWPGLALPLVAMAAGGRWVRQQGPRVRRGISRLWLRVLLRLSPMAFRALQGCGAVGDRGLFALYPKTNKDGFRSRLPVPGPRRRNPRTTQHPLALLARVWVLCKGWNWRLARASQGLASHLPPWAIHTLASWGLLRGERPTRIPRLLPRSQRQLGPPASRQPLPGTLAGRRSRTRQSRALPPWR", "UniProt Q1ZZU3": "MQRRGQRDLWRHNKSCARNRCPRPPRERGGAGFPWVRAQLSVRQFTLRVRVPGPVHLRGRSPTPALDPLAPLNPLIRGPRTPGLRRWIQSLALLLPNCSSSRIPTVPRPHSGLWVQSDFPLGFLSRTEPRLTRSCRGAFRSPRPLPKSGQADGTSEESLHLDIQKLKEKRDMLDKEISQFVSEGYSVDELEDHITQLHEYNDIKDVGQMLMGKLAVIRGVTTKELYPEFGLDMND", "UniProt Q9H6P5": "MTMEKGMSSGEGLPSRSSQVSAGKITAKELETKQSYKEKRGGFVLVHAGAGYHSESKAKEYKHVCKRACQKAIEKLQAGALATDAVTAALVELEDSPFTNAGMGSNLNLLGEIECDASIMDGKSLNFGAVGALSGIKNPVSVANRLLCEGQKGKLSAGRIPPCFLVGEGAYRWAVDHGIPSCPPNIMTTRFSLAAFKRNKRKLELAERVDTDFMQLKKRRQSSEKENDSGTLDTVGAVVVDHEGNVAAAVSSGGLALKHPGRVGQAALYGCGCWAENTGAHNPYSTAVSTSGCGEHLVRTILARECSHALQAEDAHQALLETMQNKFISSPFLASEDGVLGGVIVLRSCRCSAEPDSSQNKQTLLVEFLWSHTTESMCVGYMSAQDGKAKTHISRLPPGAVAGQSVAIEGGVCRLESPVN", "UniProt Q8WXE9": "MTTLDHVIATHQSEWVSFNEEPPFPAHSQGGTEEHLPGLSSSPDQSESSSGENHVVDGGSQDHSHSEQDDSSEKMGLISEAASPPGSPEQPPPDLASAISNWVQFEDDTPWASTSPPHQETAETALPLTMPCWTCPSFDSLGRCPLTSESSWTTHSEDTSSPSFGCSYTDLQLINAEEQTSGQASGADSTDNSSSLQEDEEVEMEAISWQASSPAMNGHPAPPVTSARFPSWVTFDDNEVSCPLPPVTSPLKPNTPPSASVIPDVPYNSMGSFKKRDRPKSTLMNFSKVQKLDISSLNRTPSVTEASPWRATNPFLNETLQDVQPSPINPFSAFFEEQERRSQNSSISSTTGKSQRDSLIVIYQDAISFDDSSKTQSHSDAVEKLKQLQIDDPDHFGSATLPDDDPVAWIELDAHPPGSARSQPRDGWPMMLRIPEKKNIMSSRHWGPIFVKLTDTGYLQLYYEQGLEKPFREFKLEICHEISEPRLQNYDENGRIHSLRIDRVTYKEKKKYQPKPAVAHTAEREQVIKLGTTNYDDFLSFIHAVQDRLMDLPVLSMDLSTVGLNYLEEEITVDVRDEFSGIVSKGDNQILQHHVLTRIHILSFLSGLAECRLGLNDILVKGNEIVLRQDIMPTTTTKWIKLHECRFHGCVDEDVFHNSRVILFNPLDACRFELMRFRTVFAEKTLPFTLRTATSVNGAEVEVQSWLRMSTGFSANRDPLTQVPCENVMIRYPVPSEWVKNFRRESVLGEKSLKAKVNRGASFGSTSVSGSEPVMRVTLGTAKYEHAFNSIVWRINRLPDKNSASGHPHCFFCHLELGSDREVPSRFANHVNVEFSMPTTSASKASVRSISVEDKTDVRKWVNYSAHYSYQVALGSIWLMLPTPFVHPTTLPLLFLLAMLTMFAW"},
  "source": "the supplement of paper PMC10849652",
  "note": "This is one part of the list.",
  "data": [
    {"compound": "CC[C@@H]1C(=O)N(C)c2cnc(Nc3ccc(C(=O)N[C@H]4CC[C@H](N5CCN(CC6CC6)CC5)CC4)cc3OC)nc2N1C(C)C [volasertib]", "test": "log2 fold change, soluble protein after heating vs DMSO (PISA); higher = thermal stabilisation; K562 cells, 10 uM, 30 min; active = over 0.2 and 3.5 SD of the protein, either way, in both replicates (recomputed)", "procedure,_shortened": "(§1)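 Aliquots of K562 cells (2×10^6 cells/mL) treated with 10 μM compound for 30 min were heated for 3 min over 48°C-58°C. After pooling and extraction in PBS with 0.5% NP-40 at 4°C, soluble protein from a 21,000xg, 90 min spin was quantified by TMTpro 16plex LC-MS/MS with channel sums equalised. Thermal stability is expressed against control samples, from duplicates, as a log2 fold change.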", "values": [
      {"target": "STXBP5L (UniProt Q9Y2K9)", "log2 fold change": "inactive: -0.261"},
      {"target": "SYP (UniProt P08247)", "log2 fold change": "inactive: 0.108"},
      {"target": "STK36 (UniProt Q9NRP7)", "log2 fold change": "inactive: 0.015"},
      {"target": "TBC1D10A (UniProt Q9BXI6)", "log2 fold change": "inactive: 0.132"},
      {"target": "SUZ12 (UniProt Q15022)", "log2 fold change": "inactive: 0.126"},
      {"target": "STK40 isoform 4 (UniProt Q8N2I9)", "log2 fold change": "inactive: 0.12"},
      {"target": "STRN3 isoform 2 (UniProt Q13033)", "log2 fold change": "inactive: -0.171"},
      {"target": "TAZ (UniProt Q16635)", "log2 fold change": "inactive: -0.188"},
      {"target": "SYK (UniProt P43405)", "log2 fold change": "inactive: 0.196"},
      {"target": "SUGT1 isoform 2 (UniProt Q9Y2Z0)", "log2 fold change": "inactive: -0.01"},
      {"target": "TATDN2 (UniProt Q93075)", "log2 fold change": "inactive: -0.008"},
      {"target": "TBC1D12 (UniProt O60347)", "log2 fold change": "inactive: -0.274"},
      {"target": "SUSD1 isoform 2 (UniProt Q6UWL2)", "log2 fold change": "inactive: -0.183"},
      {"target": "SYS1 (UniProt Q8N2H4)", "log2 fold change": "inactive: -0.386"},
      {"target": "STK35 (UniProt Q8TDR2)", "log2 fold change": "inactive: 0"},
      {"target": "TATDN1 isoform 2 (UniProt Q6P1N9)", "log2 fold change": "inactive: 0.232"},
      {"target": "TADA1 (UniProt Q96BN2)", "log2 fold change": "inactive: -0.2"},
      {"target": "SYTL4 (UniProt Q96C24)", "log2 fold change": "inactive: -0.048"},
      {"target": "TAF12 (UniProt Q16514)", "log2 fold change": "inactive: -0.018"},
      {"target": "STS (UniProt P08842)", "log2 fold change": "inactive: 0.192"},
      {"target": "TAOK2 (UniProt Q9UL54)", "log2 fold change": "inactive: -0.061"},
      {"target": "SWI5 (UniProt Q1ZZU3)", "log2 fold change": "inactive: -0.027"},
      {"target": "TAGLN (UniProt Q01995)", "log2 fold change": "inactive: -0.06"}
    ]},
    {"compound": "CC[C@H](C)N1C=C(C2=C(C=C(C=C21)C3=CN=C(C=C3)N4CCNCC4)C(=O)NCC5=C(C=C(NC5=O)C)C)C", "test": "log2 fold change, soluble protein after heating vs DMSO (PISA); higher = thermal stabilisation; K562 cells, 10 uM, 30 min; active = over 0.2 and 3.5 SD of the protein, either way, in both replicates (recomputed)", "procedure,_shortened": "as §1", "values": [
      {"target": "STXBP5L (UniProt Q9Y2K9)", "log2 fold change": "inactive: 0.078"},
      {"target": "SYP (UniProt P08247)", "log2 fold change": "inactive: -0.109"},
      {"target": "SUPT7L (UniProt O94864)", "log2 fold change": "inactive: 0"},
      {"target": "STK36 (UniProt Q9NRP7)", "log2 fold change": "inactive: -0.135"},
      {"target": "TASP1 (UniProt Q9H6P5)", "log2 fold change": "inactive: -0.016"},
      {"target": "SUGP2 (UniProt Q8IX01)", "log2 fold change": "inactive: -0.123"},
      {"target": "SUZ12 (UniProt Q15022)", "log2 fold change": "inactive: 0.004"},
      {"target": "STRN3 isoform 2 (UniProt Q13033)", "log2 fold change": "inactive: -0.164"},
      {"target": "TATDN2 (UniProt Q93075)", "log2 fold change": "inactive: 0.104"},
      {"target": "SUSD1 isoform 2 (UniProt Q6UWL2)", "log2 fold change": "inactive: 0.096"},
      {"target": "STK35 (UniProt Q8TDR2)", "log2 fold change": "inactive: -0.095"},
      {"target": "STON2 isoform 3 (UniProt Q8WXE9)", "log2 fold change": "inactive: -0.061"},
      {"target": "SYTL4 (UniProt Q96C24)", "log2 fold change": "inactive: 0.088"},
      {"target": "TAF12 (UniProt Q16514)", "log2 fold change": "inactive: -0.097"},
      {"target": "TAOK2 (UniProt Q9UL54)", "log2 fold change": "inactive: -0.006"},
      {"target": "SWI5 (UniProt Q1ZZU3)", "log2 fold change": "inactive: 0.131"},
      {"target": "SULT1E1 (UniProt P49888)", "log2 fold change": "inactive: 0.065"}
    ]}
  ]
}
